# Test results published in paper PMC6804113 (Molecules, 2019).
# HELM strings list residues between dots; [ac] is acetyl, [am] amide, other brackets name non-standard units. Positions of bridges follow the written chain, without caps; N, C: chain ends. Non-standard residues stand in square brackets, D forms with d. No end group written: not given here.
# Assay: general procedure: Fmoc solid-phase peptide synthesis; Wang resin (peptides 2, 4-8, 10) or (CAM)-2-chlorotrityl resin (peptides 1, 3, 9); DIPCDI/HOBt
# Details: cyclisation step, on linear purified peptide
row,Substance,cyclisation yield [%]
1,LSC[dQ]LYCR (disulfide 3-7),29
2,Leu-c[Cys-Pro-Gln-Leu-Tyr-Gln-Arg-CAM],10
3,"PEPTIDE1{C.S.P.Q.L.Y.Q.C}$PEPTIDE1,PEPTIDE1,1:R3-8:R3$$$V2.0",25
4,"PEPTIDE1{L.C.A.Q.L.Y.Q.C}$PEPTIDE1,PEPTIDE1,2:R3-8:R3$$$V2.0",30
5,"PEPTIDE1{L.C.P.Q.L.C.Q.R}$PEPTIDE1,PEPTIDE1,2:R3-6:R3$$$V2.0",25
6,"PEPTIDE1{L.C.P.Q.L.Y.C.R}$PEPTIDE1,PEPTIDE1,2:R3-7:R3$$$V2.0",18
7,"PEPTIDE1{L.C.P.Q.L.Y.Q.C}$PEPTIDE1,PEPTIDE1,2:R3-8:R3$$$V2.0",22
8,"PEPTIDE1{L.S.C.Q.L.Y.Q.R.[CAM]}$PEPTIDE1,PEPTIDE1,3:R3-9:R3$$$V2.0",15
9,"PEPTIDE1{L.S.C.[dQ].L.Y.Q.C}$PEPTIDE1,PEPTIDE1,3:R3-8:R3$$$V2.0",18
10,"PEPTIDE1{L.S.C.[dQ].L.Y.Q.R.[CAM]}$PEPTIDE1,PEPTIDE1,3:R3-9:R3$$$V2.0",13
